In publication PMC10313471:
No constants are given. Whether binding was seen depends on the method and setting. Binding seen in cells or lysates may run through a third protein. Some binding calls cover weakened binding; strength is not graded here.

Chains of the proteins cited; added tags and fusions are not shown. Residues count along the entry.
UniProt P17931: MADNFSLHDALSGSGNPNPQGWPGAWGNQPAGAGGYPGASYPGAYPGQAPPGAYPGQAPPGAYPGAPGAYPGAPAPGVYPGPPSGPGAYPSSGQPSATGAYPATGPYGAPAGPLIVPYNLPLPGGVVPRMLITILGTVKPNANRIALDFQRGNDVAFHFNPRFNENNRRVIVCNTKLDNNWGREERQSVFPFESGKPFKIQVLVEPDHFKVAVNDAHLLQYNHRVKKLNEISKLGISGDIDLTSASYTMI
UniProt P24043, residues 23-3122: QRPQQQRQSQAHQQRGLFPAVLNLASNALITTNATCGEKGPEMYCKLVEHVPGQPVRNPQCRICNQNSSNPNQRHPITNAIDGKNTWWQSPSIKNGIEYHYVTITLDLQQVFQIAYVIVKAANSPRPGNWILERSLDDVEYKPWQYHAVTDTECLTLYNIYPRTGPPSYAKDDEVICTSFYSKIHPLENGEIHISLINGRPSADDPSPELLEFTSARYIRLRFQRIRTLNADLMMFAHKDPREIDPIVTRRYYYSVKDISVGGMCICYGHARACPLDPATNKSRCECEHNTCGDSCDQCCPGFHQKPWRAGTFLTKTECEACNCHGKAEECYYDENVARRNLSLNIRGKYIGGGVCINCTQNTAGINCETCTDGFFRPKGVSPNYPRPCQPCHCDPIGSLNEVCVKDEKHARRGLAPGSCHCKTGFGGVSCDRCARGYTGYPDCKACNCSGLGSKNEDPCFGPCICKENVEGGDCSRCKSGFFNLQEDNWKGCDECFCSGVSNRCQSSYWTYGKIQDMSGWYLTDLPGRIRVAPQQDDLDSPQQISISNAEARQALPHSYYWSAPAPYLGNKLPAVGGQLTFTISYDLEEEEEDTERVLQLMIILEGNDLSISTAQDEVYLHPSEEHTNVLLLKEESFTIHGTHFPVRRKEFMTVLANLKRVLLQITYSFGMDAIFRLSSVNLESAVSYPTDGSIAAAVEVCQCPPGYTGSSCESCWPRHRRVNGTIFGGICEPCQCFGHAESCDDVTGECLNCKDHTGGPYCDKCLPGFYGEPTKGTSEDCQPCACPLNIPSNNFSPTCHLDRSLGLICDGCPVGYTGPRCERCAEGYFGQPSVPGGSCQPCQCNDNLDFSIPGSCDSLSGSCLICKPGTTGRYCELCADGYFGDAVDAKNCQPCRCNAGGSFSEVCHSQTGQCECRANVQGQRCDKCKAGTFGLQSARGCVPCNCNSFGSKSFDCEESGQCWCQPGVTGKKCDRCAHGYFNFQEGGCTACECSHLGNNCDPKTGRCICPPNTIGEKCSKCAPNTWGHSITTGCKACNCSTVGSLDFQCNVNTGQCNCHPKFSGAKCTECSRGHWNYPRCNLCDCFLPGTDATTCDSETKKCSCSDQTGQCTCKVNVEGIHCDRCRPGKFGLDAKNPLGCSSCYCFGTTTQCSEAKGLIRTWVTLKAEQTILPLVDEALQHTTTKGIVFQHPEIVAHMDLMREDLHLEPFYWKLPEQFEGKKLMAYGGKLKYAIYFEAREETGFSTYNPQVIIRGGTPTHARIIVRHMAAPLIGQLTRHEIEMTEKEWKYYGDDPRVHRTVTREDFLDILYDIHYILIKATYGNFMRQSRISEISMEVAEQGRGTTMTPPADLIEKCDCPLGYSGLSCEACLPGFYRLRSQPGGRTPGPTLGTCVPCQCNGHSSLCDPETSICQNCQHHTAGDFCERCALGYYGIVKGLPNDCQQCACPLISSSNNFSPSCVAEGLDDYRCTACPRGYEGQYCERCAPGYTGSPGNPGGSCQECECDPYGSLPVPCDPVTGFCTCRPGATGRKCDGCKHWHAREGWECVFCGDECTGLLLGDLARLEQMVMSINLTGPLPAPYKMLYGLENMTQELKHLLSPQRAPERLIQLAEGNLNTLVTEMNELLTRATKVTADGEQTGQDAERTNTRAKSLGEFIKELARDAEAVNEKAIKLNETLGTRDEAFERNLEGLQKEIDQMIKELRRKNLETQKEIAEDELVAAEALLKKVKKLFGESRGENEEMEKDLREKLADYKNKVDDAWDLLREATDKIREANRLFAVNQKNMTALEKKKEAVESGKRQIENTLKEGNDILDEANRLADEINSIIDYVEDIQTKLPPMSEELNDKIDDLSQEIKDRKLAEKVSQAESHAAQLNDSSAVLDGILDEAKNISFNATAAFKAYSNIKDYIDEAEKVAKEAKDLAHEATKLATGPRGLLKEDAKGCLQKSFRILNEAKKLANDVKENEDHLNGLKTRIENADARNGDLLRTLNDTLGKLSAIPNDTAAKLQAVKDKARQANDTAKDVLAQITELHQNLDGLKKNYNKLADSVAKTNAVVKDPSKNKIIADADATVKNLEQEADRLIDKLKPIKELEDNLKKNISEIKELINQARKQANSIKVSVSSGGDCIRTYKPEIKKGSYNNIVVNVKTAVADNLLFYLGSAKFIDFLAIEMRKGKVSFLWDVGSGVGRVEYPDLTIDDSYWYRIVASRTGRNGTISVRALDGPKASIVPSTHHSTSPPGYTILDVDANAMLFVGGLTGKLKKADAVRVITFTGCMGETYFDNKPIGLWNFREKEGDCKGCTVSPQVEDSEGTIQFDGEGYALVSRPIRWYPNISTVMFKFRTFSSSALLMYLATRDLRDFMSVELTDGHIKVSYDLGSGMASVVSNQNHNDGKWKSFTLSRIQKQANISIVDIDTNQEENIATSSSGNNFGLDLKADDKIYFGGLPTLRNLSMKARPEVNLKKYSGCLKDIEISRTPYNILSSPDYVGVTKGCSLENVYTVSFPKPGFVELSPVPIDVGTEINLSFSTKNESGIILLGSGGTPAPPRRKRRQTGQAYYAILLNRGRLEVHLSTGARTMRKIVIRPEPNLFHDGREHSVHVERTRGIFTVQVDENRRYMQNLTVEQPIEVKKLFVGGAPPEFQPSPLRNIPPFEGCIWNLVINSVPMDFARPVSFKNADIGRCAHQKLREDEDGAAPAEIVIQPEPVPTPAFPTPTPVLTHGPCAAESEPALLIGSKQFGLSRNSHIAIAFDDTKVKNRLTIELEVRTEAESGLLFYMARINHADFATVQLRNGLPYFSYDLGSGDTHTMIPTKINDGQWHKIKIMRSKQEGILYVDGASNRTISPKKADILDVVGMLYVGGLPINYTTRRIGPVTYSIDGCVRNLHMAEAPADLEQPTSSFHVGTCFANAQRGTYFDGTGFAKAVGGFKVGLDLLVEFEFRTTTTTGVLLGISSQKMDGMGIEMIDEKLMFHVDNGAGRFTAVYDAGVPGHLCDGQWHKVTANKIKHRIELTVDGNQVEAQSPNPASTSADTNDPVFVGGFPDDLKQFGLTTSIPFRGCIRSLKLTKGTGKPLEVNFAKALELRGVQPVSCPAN

Target: galectin-3, endogenous in BMP7-induced human cementoblast-like cells (human (endogenous in hPDLCs)) (UniProt P17931)
Test: co-IP; anti-galectin-3 immunoprecipitation from extracts of cementoblast-like cells, blot with anti-LAMA2; no GB1107

binding: binds
Substance: laminin α2 (from UniProt P24043 23-3122)
